# Results taken from the supplement of paper PMC7580552.
# Counter-ions that a name gives are not always drawn. Some of the results follow. Baselines shift from plate to plate; read single values as rough.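 The strain is a K-12 laboratory model grown without shaking in 96-well plates, and biofilm is the crystal violet stain retained on the wells, read as absorbance. Drugs were picked as candidate specific biofilm blockers when they cut staining strongly but slowed free-floating growth by less than 70%.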
# System: Escherichia coli W3110
# Experiment: biofilm formation (crystal violet staining) relative to untreated control; higher = more biofilm
# Conditions: 10 µM; 20-24 h; 30 °C; TB
row,SMILES,biofilm formation [%]
1,Cc1nnc(SCC2=C(C(=O)O)N3C(=O)[C@@H](NC(=O)Cn4cnnn4)[C@H]3SC2)s1 [Cefazolin sodium salt],15
2,O=c1[nH]c(=O)n([C@H]2C[C@H](O)[C@@H](CO)O2)cc1C(F)(F)F [Trifluridine],87
3,CC(C)NC(=N)NC(=N)Nc1ccc(Cl)cc1 [Proguanil hydrochloride],63
4,CC(C)Cn1cnc2c(N)nc3ccccc3c21 [Imiquimod],79
5,NC(=O)N1c2ccccc2CC(=O)c2ccccc21 [Oxcarbazepine],93
6,Cc1cccc(Nc2ccncc2S(=O)(=O)NC(=O)NC(C)C)c1 [Torsemide],119
7,CC[N+](CC)(CC(=O)Nc1c(C)cccc1C)Cc1ccccc1 [Denatonium benzoate],98
8,COc1cc(NS(=O)(=O)c2ccc(N)cc2)nc(OC)n1 [Sulfadimethoxine],43
9,CC1(C)O[C@@H]2[C@@H](CO[C@@]3(COS(N)(=O)=O)OC(C)(C)O[C@@H]23)O1 [Topiramate],69
10,CN(C)c1cc(NC(=O)CNC(C)(C)C)c(O)c2c1C[C@H]1C[C@H]3[C@H](N(C)C)C(O)=C(C(N)=O)C(=O)[C@@]3(O)C(O)=C1C2=O [Tigecycline],50
11,Cc1nccn1CC1CCc2c(c3ccccc3n2C)C1=O (configuration not stated) [Ondansetron Hydrochloride],79
12,CC(=O)NC[C@H]1CN(c2ccc(N3CCOCC3)c(F)c2)C(=O)O1 [Linezolid],99
13,COc1ccc2c(c1)c(CC(=O)OCC(=O)O)c(C)n2C(=O)c1ccc(Cl)cc1 [Acemetacin],55
14,CCOCCn1c(N2CCCN(C)CC2)nc2ccccc21 [Emedastine],97
15,Cc1cccn2c(=O)c(-c3nnn[nH]3)cnc12 [Pemirolast potassium],58
16,CC[C@H](C)C(=O)O[C@H]1C[C@H](O)C=C2C=C[C@H](C)[C@H](CC[C@@H](O)C[C@@H](O)CC(=O)O)[C@H]21 [Pravastatin],106
17,CC(C)(C)NCC(O)COc1cccc2c1CC(O)C(O)C2 (configuration not stated) [Nadolol],70
18,C#CC1(O)CC[C@H]2[C@@H]3CCC4=CC(=O)CC[C@@H]4[C@H]3CC[C@@]21CC (stereo partly drawn) [Norgestrel-(-)],78
19,Cc1cccc(C)c1NC(=O)CN1CCN(CCCC(c2ccc(F)cc2)c2ccc(F)cc2)CC1 [Lidoflazine],83
20,CC(=O)O[C@]1(C(C)=O)CC[C@H]2[C@@H]3C=C(C)C4=CC(=O)CC[C@]4(C)[C@H]3CC[C@@]21C [Megestrol acetate],77
21,Nc1nnc(-c2cccc(Cl)c2Cl)c(N)n1 [Lamotrigine],69
22,CC[C@@]1(O)C(=O)OCc2c1cc1n(c2=O)Cc2cc3c(CN(C)C)c(O)ccc3nc2-1 [Topotecan],112
23,Clc1cc(Cl)c(OCC#CI)cc1Cl [Haloprogin],53
24,Nc1nc(=O)[nH]cc1F [Flucytosine],53
25,O=C(Nc1ccccc1)OCC(CN1CCCCC1)OC(=O)Nc1ccccc1 (configuration not stated) [Diperodon hydrochloride],72
26,CCCC(=O)Nc1ccc(OCC(O)CNC(C)C)c(C(C)=O)c1 (configuration not stated) [Acebutolol hydrochloride],67

# A different layout for part of the listing above.
row	SMILES	biofilm formation [%]
9	CC1(C)O[C@@H]2[C@@H](CO[C@@]3(COS(N)(=O)=O)OC(C)(C)O[C@@H]23)O1 [Topiramate]	69
10	CN(C)c1cc(NC(=O)CNC(C)(C)C)c(O)c2c1C[C@H]1C[C@H]3[C@H](N(C)C)C(O)=C(C(N)=O)C(=O)[C@@]3(O)C(O)=C1C2=O [Tigecycline]	50
11	Cc1nccn1CC1CCc2c(c3ccccc3n2C)C1=O (configuration not stated) [Ondansetron Hydrochloride]	79
12	CC(=O)NC[C@H]1CN(c2ccc(N3CCOCC3)c(F)c2)C(=O)O1 [Linezolid]	99

# Next part:

row,SMILES,biofilm formation [%]
1,CC(=O)Nc1ccc(OCC(O)CNC(C)C)cc1 (configuration not stated) [Practolol],55
2,CN1[C@@H]2CC[C@H]1C[C@@H](OC(c1ccccc1)c1ccccc1)C2 [Benztropine mesylate],78
3,N=C(N=C(N)N)N1CCOCC1 [Moroxidine hydrochloride],66
4,CC(=O)OCC(=O)[C@@]12OC3(CCCC3)O[C@@H]1C[C@H]1[C@@H]3CCC4=CC(=O)C=C[C@]4(C)[C@@]3(F)[C@@H](O)C[C@@]12C [Amcinonide],72
5,Cc1c(F)c(N2CCNC(C)C2)cc2c1c(=O)c(C(=O)O)cn2C1CC1 (configuration not stated) [Grepafloxacin],3
6,CNCC[C@@H](Oc1ccccc1C)c1ccccc1 [Tomoxetine hydrochloride],102
7,O=C(CCCCC(=O)Nc1c(I)cc(I)c(C(=O)O)c1I)Nc1c(I)cc(I)c(C(=O)O)c1I [Iodipamide],63
8,"O=C(O)Cc1cc(I)c(Oc2ccc(O)c(I)c2)c(I)c1 [Tiratricol, 3,3',5-triiodothyroacetic acid]",74
9,COCCCOc1ccnc(C[S+]([O-])c2nc3ccccc3[nH]2)c1C (configuration not stated) [Rabeprazole Sodium salt],90
10,CCCc1nc2c(C)cc(-c3nc4ccccc4n3C)cc2n1Cc1ccc(-c2ccccc2C(=O)O)cc1 [Telmisartan],66
11,COCCCOc1cc(C[C@@H](C[C@H](N)[C@@H](O)C[C@H](C(=O)NCC(C)(C)C(N)=O)C(C)C)C(C)C)ccc1OC [Aliskiren hemifumarate],50
12,CCCCOC(=O)c1ccc(O)cc1 [Butylparaben],48
13,CC(=O)/N=c1/sc(S(N)(=O)=O)nn1C [Methazolamide],75
14,N=C(N)N1CCc2ccccc2C1 [Debrisoquin sulfate],65
15,CCCCC1C(=O)N(c2ccccc2)N(c2ccccc2)C1=O [Phenylbutazone],93
16,CCN(CC)C(=O)Nc1ccc(OCC(O)CNC(C)(C)C)c(C(C)=O)c1 (configuration not stated) [Celiprolol hydrochloride],81
17,N[C@H]1CONC1=O [(S)-(-)-Cycloserine],59
18,CCCCC1C(=O)N(c2ccccc2)N(c2ccc(O)cc2)C1=O (configuration not stated) [Oxyphenbutazone],72
19,COc1cc2nc(N3CCN(C(=O)C4COc5ccccc5O4)CC3)nc(N)c2cc1OC (configuration not stated) [Doxazosin mesylate],67
20,CCN(CC)C(=O)C1(c2ccccc2)CC1CN (configuration not stated) [Milnacipran hydrochloride],99
21,Cc1cc(C(C)(C)C)cc(C)c1CC1=NCCN1 [Xylometazoline hydrochloride],74
22,CCN(CCCCOC(=O)c1ccc(OC)c(OC)c1)C(C)Cc1ccc(OC)cc1 (configuration not stated) [Mebeverine hydrochloride],70
23,O=P(O)(O)C(O)(Cn1ccnc1)P(=O)(O)O [Zoledronic acid hydrate],50
24,CCN(CC)CCOCCOC(=O)C1(c2ccccc2)CCCC1 [Carbetapentane citrate],93
25,NC[C@H]1O[C@H](O[C@H]2[C@H](O)[C@@H](O[C@H]3O[C@H](CO)[C@@H](O)[C@H](N)[C@H]3O)[C@H](N)C[C@@H]2N)[C@H](N)C[C@@H]1O [Tobramycin],18
26,C=CCOc1ccccc1OCC(O)CNC(C)C (configuration not stated) [Oxprenolol hydrochloride],68

row,SMILES,biofilm formation [%]
1,Cc1c(N)c(=O)n(-c2ccccc2)n1C [Ampyrone],83
2,CCOC(=O)/C=C(C)/C=C/C=C(C)/C=C/c1c(C)cc(OC)c(C)c1C [Etretinate],91
3,CC(C)[C@H](N)C(=O)OCCOCn1cnc2c(=O)nc(N)[nH]c21 [Valacyclovir hydrochloride],81
4,CN1CCN2c3ncccc3Cc3ccccc3C2C1 (configuration not stated) [Mirtazapine],96
5,COC(=O)N/N=C/c1c[n+]([O-])c2ccccc2[n+]1[O-] [Carbadox],76
6,CN(C(=O)CN(CCO)CC(=O)N(C)C(C)(C)Cc1ccccc1)C(C)(C)Cc1ccccc1 [Oxethazaine],80
7,Cc1cc(C)nc(NS(=O)(=O)c2ccc(N)cc2)n1 [Sulfamethazine sodium salt],37
8,CC1(C)O[C@@H]2C[C@H]3[C@@H]4C[C@H](F)C5=CC(=O)C=C[C@]5(C)[C@@]4(F)[C@@H](O)C[C@]3(C)[C@]2(C(=O)CO)O1 [Fluocinolone acetonide],82
9,COc1cc(NS(=O)(=O)c2ccc(N)cc2)ncn1 [Sulfamonomethoxine],29
10,CC(C(O)c1ccc(O)cc1)N1CCC(Cc2ccccc2)CC1 (configuration not stated) [Ifenprodil tartrate],80
11,COc1ccc(Cl)cc1C(=O)NCCc1ccc(S(=O)(=O)NC(=O)NC2CCCCC2)cc1 [Glibenclamide],62
12,Nc1nc(=O)n([C@@H]2CS[C@H](CO)O2)cc1F [(-)-Emtricitabine],80
13,CC#C[C@]1(O)CC[C@H]2[C@@H]3CCC4=CC(=O)CCC4=C3[C@@H](c3ccc(N(C)C)cc3)C[C@@]21C [Mifepristone],51
14,CCCOc1ccccc1-c1nc2[nH]nnc2c(=O)[nH]1 [Zaprinast],50
15,CCCCCCNC(=O)n1cc(F)c(=O)[nH]c1=O [Carmofur],76
16,Clc1ccc2nsnc2c1NC1=NCCN1 [Tizanidine hydrochloride],77
17,CC(C)Oc1ccc2c(=O)c(-c3ccccc3)coc2c1 [Ipriflavone],109
18,Cc1cc2cc3c(C)cc(=O)oc3c(C)c2o1 [Trioxsalen],81
19,CC(=O)Nc1nnc(S(N)(=O)=O)s1 [Acetazolamide],81
20,CCCCOc1cc(C(=O)OCCN(CC)CC)ccc1N [Benoxinate hydrochloride],68
21,C[C@]12CC[C@@H]3c4ccc(O)cc4C[C@@H](CCCCCCCCC[S+]([O-])CCCC(F)(F)C(F)(F)F)[C@H]3[C@@H]1CC[C@@H]2O (some centres not stated) [Fulvestrant],69
22,CO/N=C(\C(=O)N[C@@H]1C(=O)N2C(C(=O)O)=C(COC(C)=O)CS[C@H]12)c1csc(N)n1 [Cefotaxime sodium salt],8
23,CC(CNC1CCCCC1)OC(=O)c1ccccc1 (configuration not stated) [Hexylcaine hydrochloride],68
24,Nc1ccc(S(=O)(=O)Nc2nccs2)cc1 [Sulfathiazole],29
25,Cc1ccc(-c2cc(C(F)(F)F)nn2-c2ccc(S(N)(=O)=O)cc2)cc1 [Celecoxib],65
